Experimental data: PubChem BioAssay AID1259254 (NCATS, 2017)

- Purpose: 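Genome-wide screen for genes that prevent DNA re-replication in cancer cells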 (primary screen)
- Cell system: human HCT116 colorectal cancer cells
- Reagent: single siRNA against human genes
- Timing: 3 days
- Read-out: 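Imaged Hoechst DNA stain sorts each cell into a cycle phase by DNA amount; per plate, G2 fraction set to 0% for non-targeting and 100% for GMNN siRNA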
- Scale: G2 robust z-score and G2 cells, % of GMNN control: higher = more G2 cells, more excess DNA replication
- Rule for the call: 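Active siRNAs have a G2 robust z of 5 or more median absolute deviations over the median, which in these data means about 38% or higher of GMNN control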
The whole screen tested about 59,000 reagents; shown is a random part of them. In the full data, about 1,550 (2.6%) are marked active. 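G2 share is only a proxy for re-replication; each gene was hit by three separate siRNAs, and active genes were retested.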 Reagents against one gene are numbered here. Further read-outs or replicates are left out here. The record does not give: the amount of reagent.

{"gene symbol": "SZRD1", "siRNA no.": 1, "G2 robust z-score": 0.853, "G2 cells, % of GMNN control": 8.97, "outcome": "inactive"}
{"gene symbol": "SZRD1", "siRNA no.": 2, "G2 robust z-score": -0.405, "G2 cells, % of GMNN control": 0.116, "outcome": "inactive"}
{"gene symbol": "SZRD1", "siRNA no.": 3, "G2 robust z-score": 0.348, "G2 cells, % of GMNN control": 5.42, "outcome": "inactive"}
{"gene symbol": "STX4", "siRNA no.": 1, "G2 robust z-score": -0.117, "G2 cells, % of GMNN control": 2.14, "outcome": "inactive"}
{"gene symbol": "STX4", "siRNA no.": 2, "G2 robust z-score": -0.99, "G2 cells, % of GMNN control": -4, "outcome": "inactive"}
{"gene symbol": "STX4", "siRNA no.": 3, "G2 robust z-score": -0.333, "G2 cells, % of GMNN control": 0.624, "outcome": "inactive"}
{"gene symbol": "TAFA2", "siRNA no.": 1, "G2 robust z-score": -1.08, "G2 cells, % of GMNN control": -4.65, "outcome": "inactive"}
{"gene symbol": "TAFA2", "siRNA no.": 2, "G2 robust z-score": 0.611, "G2 cells, % of GMNN control": 7.27, "outcome": "inactive"}
{"gene symbol": "TAFA2", "siRNA no.": 3, "G2 robust z-score": -0.711, "G2 cells, % of GMNN control": -2.04, "outcome": "inactive"}

Next part; the last 2 above are carried over.
{"gene symbol": "TAFA2", "siRNA no.": 2, "G2 robust z-score": 0.611, "G2 cells, % of GMNN control": 7.27, "outcome": "inactive"}
{"gene symbol": "TAFA2", "siRNA no.": 3, "G2 robust z-score": -0.711, "G2 cells, % of GMNN control": -2.04, "outcome": "inactive"}
{"gene symbol": "CDH17", "siRNA no.": 1, "G2 robust z-score": 0.263, "G2 cells, % of GMNN control": 4.81, "outcome": "inactive"}
{"gene symbol": "CDH17", "siRNA no.": 2, "G2 robust z-score": -1.07, "G2 cells, % of GMNN control": -4.53, "outcome": "inactive"}
{"gene symbol": "CDH17", "siRNA no.": 3, "G2 robust z-score": -0.17, "G2 cells, % of GMNN control": 1.77, "outcome": "inactive"}
{"gene symbol": "RC3H1", "siRNA no.": 1, "G2 robust z-score": 1.04, "G2 cells, % of GMNN control": 10.3, "outcome": "inactive"}
{"gene symbol": "RC3H1", "siRNA no.": 2, "G2 robust z-score": -0.279, "G2 cells, % of GMNN control": 1.01, "outcome": "inactive"}
{"gene symbol": "RC3H1", "siRNA no.": 3, "G2 robust z-score": -1.14, "G2 cells, % of GMNN control": -5.05, "outcome": "inactive"}
{"gene symbol": "RNASE1", "siRNA no.": 1, "G2 robust z-score": 1.15, "G2 cells, % of GMNN control": 11.1, "outcome": "inactive"}
{"gene symbol": "RNASE1", "siRNA no.": 2, "G2 robust z-score": -0.588, "G2 cells, % of GMNN control": -1.17, "outcome": "inactive"}
{"gene symbol": "RNASE1", "siRNA no.": 3, "G2 robust z-score": 0.698, "G2 cells, % of GMNN control": 7.88, "outcome": "inactive"}
